# PubChem BioAssay AID1259354 (Paczesny and Yang Labs, IUPUI and University of Michigan, 2018)
# Protein sequences, listed by entry. Tags and fused reporters are not part of them. Lines headed by an entry give the natural chain unless they say otherwise; changes in a name come on top.
# UniProt Q01638: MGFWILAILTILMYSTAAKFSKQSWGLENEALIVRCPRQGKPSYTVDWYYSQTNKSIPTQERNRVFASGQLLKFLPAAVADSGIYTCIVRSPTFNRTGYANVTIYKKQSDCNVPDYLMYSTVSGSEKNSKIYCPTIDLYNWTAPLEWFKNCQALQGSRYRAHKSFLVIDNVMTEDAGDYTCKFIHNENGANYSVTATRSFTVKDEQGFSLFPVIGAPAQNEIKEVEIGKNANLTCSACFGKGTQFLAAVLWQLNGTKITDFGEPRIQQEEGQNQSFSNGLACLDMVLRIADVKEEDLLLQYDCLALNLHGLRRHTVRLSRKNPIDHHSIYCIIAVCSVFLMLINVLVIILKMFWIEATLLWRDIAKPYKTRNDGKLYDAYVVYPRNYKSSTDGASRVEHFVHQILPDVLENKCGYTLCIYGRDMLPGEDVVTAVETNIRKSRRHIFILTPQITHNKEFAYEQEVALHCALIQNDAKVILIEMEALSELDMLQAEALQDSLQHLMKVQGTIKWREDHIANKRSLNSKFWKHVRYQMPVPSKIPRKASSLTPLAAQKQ
# The whole screen tested about 78,000 compounds, of which about 1,800 (2.3%) were called active. The inconclusive results got no clear call from the source; some entries with a clear call stand among them for comparison. No stated cut-off is given here; in the data, active means inhibition above about 30%; inconclusive means mostly about 10% to 28%; inactive means weaker than that.
# Molecular target: Interleukin-1 receptor-like 1 (Homo sapiens) (UniProt Q01638)
# Assay: blocks human ST2 binding to IL-33, primary screen, biochemical, AlphaLISA (AID 1259354)
# Details: AlphaLISA ST2-Fc/biotin-IL-33 interaction, 1 h; at 17 µM, active compounds read high
row,SMILES,inhibition
1,O=C(c1ccc(N2CCCC2=O)cc1)N1CC[C@@H](c2ccc(F)cc2)[C@H](O)C1,inconclusive: 14%
2,CCN(CC)c1ccc(CNc2ccc3c(c2)ncn3C(C)(C)C)cc1,active: 40%
3,CC(=O)c1cccc(NC(=O)C2CCN(S(=O)(=O)c3ccc(Cl)cc3)CC2)c1,inactive
4,CCC(C)c1cc([N+](=O)[O-])cc([N+](=O)[O-])c1OC(=O)OC(C)C (stereo not given),inconclusive: 24%
5,CN1CC2(CCN(C(=O)C3(c4ccc(Cl)cc4)CCCCC3)C2)OC1=O (stereo not given),inconclusive: 11%
6,COc1cncc(-c2ccc(F)cc2Cl)c1,inactive
7,O=S(=O)(c1ccc(Br)cc1)N1CCSC1c1ccccc1Cl (stereo not given),inactive
8,COc1ccc(N2S(=O)(=O)c3ccccc3S2(=O)=O)c(OC)c1,inactive
9,COc1cc(CN2CCC(n3nccc3NC(=O)Cc3ccccc3)CC2)ccc1F,inconclusive: 11%
10,C=CCOc1ccc(/C=C2/C(=O)N(c3ccc(Br)cc3)N=C2C)cc1OC,inconclusive: 15%
11,Cc1ccc(-n2c(SCC(=O)NCc3ccc(F)cc3)nc3c(c2=O)SCC3)cc1,inconclusive: 12%
12,Cc1ccc(CNC(=O)CCS(=O)(=O)c2cccc3nsnc23)o1,inactive
13,c1cnc(N2CCCC(NCc3cccc(OC4CCCC4)c3)C2)nc1 (stereo not given),inactive
14,CCOc1ccccc1OCCCCOc1ccc([N+](=O)[O-])cc1,inactive
15,Cc1cc(CNC(=O)c2ccc3oc(-c4cccc(F)c4)nc3c2)nn1C,inconclusive: 10%
16,Cn1c(=O)c2cc(S(=O)(=O)N3CC(=O)N(CCc4ccccc4)C(=O)C3)ccc2n(C)c1=O,inconclusive: 12%
17,CC(C)N1CCN(C(=O)c2cc(NC(=O)c3ccccc3)cc3ncn(C4CCCC4)c23)CC1,inconclusive: 11%
18,Cc1c(C(=O)Nc2cccc(NC(=O)c3ccccc3Cl)c2)cccc1[N+](=O)[O-],inactive
19,COc1cccc(COC2CN(Cc3ccccn3)C(=O)CN(C(=O)c3cccc4nccnc34)C2)c1 (stereo not given),inconclusive: 11%
20,COc1cc(/C=C2/C(=O)N(c3cccc(Br)c3)N=C2C)cc(OC)c1O,inconclusive: 25%

# Of the compounds above, four have two or more sulfur atoms.
row,SMILES,inhibition
7,O=S(=O)(c1ccc(Br)cc1)N1CCSC1c1ccccc1Cl (stereo not given),inactive
8,COc1ccc(N2S(=O)(=O)c3ccccc3S2(=O)=O)c(OC)c1,inactive
11,Cc1ccc(-n2c(SCC(=O)NCc3ccc(F)cc3)nc3c(c2=O)SCC3)cc1,inconclusive: 12%
12,Cc1ccc(CNC(=O)CCS(=O)(=O)c2cccc3nsnc23)o1,inactive

# Next entries:

row,SMILES,inhibition
1,O=C(Nc1ccc(Cl)c(Cl)c1)c1cnc2n(c1=O)CCS2,active: 32%
2,Cc1cc(O)ccc1N1C(=O)c2ccc([N+](=O)[O-])cc2C1=O,inconclusive: 11%
3,Cc1cc(C)c(C)c(S(=O)(=O)NCc2ccccn2)c1C,inconclusive: 17%
4,O=S(=O)(Nc1ccccc1Cl)c1ccc(Br)cc1,inconclusive: 25%
5,COc1ccc(NC(=O)Cn2cnc3c(cnn3-c3ccc(Cl)cc3)c2=O)c(OC)c1,inconclusive: 23%
6,N#CC(C#N)C(C#N)(C#N)C1CCC/C(=C\c2ccco2)C1=O (stereo not given),inconclusive: 23%
7,CC(C)(C)CC(=O)NC1CC(=O)N(c2ccc(F)cc2)C1 (stereo not given),inconclusive: 18%
8,O[C@@H]1C[C@@H](c2nc(-c3ccc(OC(F)(F)F)cc3)no2)N(Cc2cccs2)C1,inconclusive: 25%
9,CN(CC(=O)N1CCc2ccccc21)S(=O)(=O)c1ccc2c(c1)CCC(=O)N2,inconclusive: 10%
10,CCC(CC)n1ncc2c1NC(=O)CC2c1ccc(O)c(C(=O)OC)c1 (stereo not given),inconclusive: 14%
11,CCCn1cc2c(c1-c1ccc(OC)cc1)c(=O)n(C)c(=O)n2C,inactive
12,Cc1ccc2[nH]c(CN(Cc3ccccn3)CC3CCCO3)nc2c1C (stereo not given),inactive
13,CCC1CCCCN1C(=O)Cn1c(=O)n(-c2ccc(F)cc2F)c(=O)c2sccc21 (stereo not given),inconclusive: 17%
14,CCN(CC)CCOC(=O)c1cc2cc(COC)ccc2o1,inconclusive: 11%
15,O=C(C1CCN(S(=O)(=O)c2cccnc2)CC1)N1CCN(c2ccc(F)cc2)CC1,inactive
16,COc1ccc(CN2C[C@H](O)C[C@H]2c2nc(-c3ccc(F)cc3)no2)c2ccccc12,inconclusive: 12%
17,CC(C)NC(=O)CN1CCN(Cc2nc(Cc3cccc(F)c3)no2)CC1,inactive
18,c1ccc2[nH]c(-c3ccc(OCc4nc(CC5CC5)no4)cc3)nc2c1,inconclusive: 16%
19,COC(=O)C1C(=O)C2=C(CC1C)NC(C)=C(C(=O)OC(C)C)C2c1ccc(C)o1 (stereo not given),inconclusive: 15%
20,CC(O)CSc1nc2c(c(=O)[nH]c(=O)n2C)n1C(C)C (stereo not given),inconclusive: 10%

row,SMILES,inhibition
1,O=C(CC1Nc2ccccc2NC1=O)Nc1ccc(SC(F)F)cc1 (stereo not given),inactive
2,CCn1nc(C)c(C(=O)N2C[C@@H]3C4CCC(CC4)[C@@H]3C2)c1C,inconclusive: 15%
3,Cc1c(C)n(CC(O)CN2CCCCCC2)c2ccccc12 (stereo not given),inconclusive: 15%
4,O=C(Cn1cnc2c(cnn2-c2ccccc2)c1=O)Nc1ccccc1F,inactive
5,O=S(=O)(NCC1CCCO1)c1ccc(C2CCCCC2)cc1 (stereo not given),inactive
6,CCn1c(CC2CCN(C(=O)C3(C)CCCO3)CC2)nn(C)c1=O (stereo not given),inconclusive: 10%
7,Cc1noc(C)c1S(=O)(=O)NC1CCCc2ccccc21 (stereo not given),inconclusive: 22%
8,CCC(C)NC(=O)[C@H](Cc1ccccc1)N1Cc2ccccc2C1=O (stereo not given in full),inactive
9,N#C/C(=C/c1ccc(Br)cc1)c1nc(-c2cccs2)cs1,active: 40%
10,O=C(NCCc1nc2ccccc2[nH]1)c1cnn2ccccc12,inconclusive: 17%
11,Cc1nn(Cc2ccc(Cl)cc2)c(C)c1NC(=O)c1cc(-c2ccco2)on1,inconclusive: 16%
12,CN(C(=O)Cc1c(C(=O)O)[nH]c2ccc(Cl)cc12)c1cccc(C(F)(F)F)c1,inconclusive: 17%
13,Cc1ccc(CSC2=NCCN2C(=O)c2ccccc2Br)cc1,inconclusive: 11%
14,CSCCCNC(=O)C1CCCN(C2CCN(Cc3ccccc3)CC2)C1 (stereo not given),inactive
15,Cc1ccc(NC(=O)c2cc3ccccc3o2)cc1,inconclusive: 10%
16,Cn1nccc1C(=O)NC1CCCc2nc(-c3ccccc3)ncc21 (stereo not given),inconclusive: 10%
17,CCC(=O)Oc1ccc(-c2nc(-c3ccccc3)c3ccccn23)cc1,inconclusive: 11%
18,Cc1cccc(C(=O)Nc2ccc(C(C)C)cc2)c1,inactive
19,CCOC(=O)c1nc(Nc2cc(C)cc(C)c2)c2ccccc2n1,inconclusive: 23%
20,Cc1ccc(C)c(C2=C/C(=C3/c4ccccc4-c4ncccc43)C(=O)O2)c1,active: 43%
